Experimental data as given in PubChem BioAssay AID504834 (National Center for Advancing Translational Sciences (NCATS), 2011).
The whole screen tested about 320,000 compounds, of which about 22,000 (6.9%) were called active. Inconclusive means that the source gave no clear call. Such entries were picked first, then a sample of the others. Calls follow the shape of the dose curve; as a rule, active = well fitted inhibition curve with a large enough effect; inconclusive = small, poorly fitted or top-dose-only effect, or another doubt; inactive = no such curve, though single readings can be large or run the other way. A potency beside an inconclusive call is a rough fit, not a confirmed value.

Assay: Primary qHTS for delayed death inhibitors of the malarial parasite plastid, 96 hour incubation
Settings: P. falciparum luciferase reporter growth; series mostly up to 28.7 µM; activity change, negative = inhibition: at the top concentration
Method in brief: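 Infected RBCs, 2% Hct / 0.05% parasitemia final; luciferase-reporter P. falciparum; cpd 96 h, 37 C, 5% CO2; luciferase detection reagent; luminescence.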
% is scaled to controls: 0 for no effect and ±100 for the full control effect; potency is read from the fitted curve at half-maximal effect.

SMILES	Potency	activity change, negative = inhibition
CN(C1CCCCC1)S(=O)(=O)c1ccc(S(=O)(=O)N(CC(=O)Nc2ccccc2)C2CC2)cc1	inconclusive: 11.7 µM [inhibitor, single point]	
COc1ccc(-n2c(CN3CCC(C(N)=O)CC3)nc3ccc([N+](=O)[O-])cc3c2=O)c(OC)c1	inconclusive: 11.7 µM [inhibitor, partial curve, poor fit]	
Cc1cc(Cl)c(S(=O)(=O)N2CCN(c3ccccc3)CC2)cc1OCC(N)=O	inconclusive: 10.4 µM [inhibitor, partial curve]	
Cc1cc(C)nc(SCC(=O)OC(C)C(=O)Nc2ccccc2)n1 (stereo not given)	inconclusive: 10.4 µM [inhibitor, partial curve]	
CN(Cc1ccccc1)C1CCCN(C(=O)c2ccc(Cl)s2)C1 (stereo not given)	inconclusive: 13.1 µM [inhibitor, single point]	
CN(C)c1ccc(Nc2nc(N)c([N+](=O)[O-])c(N3CCOCC3)n2)cc1	active: 10.4 µM	
CC(C)(C)c1ccc(-c2nnc(SCCN3C(=O)c4ccccc4C3=O)o2)cc1		inactive: 79.7%
O=C1N/C(=N/O)S/C1=C/c1cccnc1	inconclusive: 3.29 µM [inhibitor, full curve, poor fit]	
CC1(C)CC(=O)C=C(Nc2ccc(Cl)c(Br)c2)C1	inconclusive: 1.47 µM [inhibitor, partial curve, poor fit]	
CSC(=NC1CCCCC1)NS(=O)(=O)c1ccccc1	inconclusive: 16.5 µM [inhibitor, single point]	
O=C(Nc1ccc(N2CCOCC2)cc1)c1cnccn1	inconclusive: 18.5 µM [inhibitor, single point]	
Cc1cc(=O)oc2cc(NC(=O)c3ccnn3C)ccc12	inconclusive: 18.5 µM [inhibitor, single point]	
CCN(CC(=O)NC1CCCC1)S(=O)(=O)c1ccc(C)cc1	inconclusive: 18.5 µM [inhibitor, partial curve, poor fit]	
COC(=O)C1=C(c2ccc(F)cc2OCc2ccccc2)C[C@@H]2CC[C@H]1N2C(=O)NCc1ccc(F)cc1	inconclusive: 6.57 µM [inhibitor, partial curve, poor fit]	
CCN1C(=NCc2ccco2)N[C@@H](c2cccc(F)c2)C(C(=O)OC)=C1C	inconclusive: 4.65 µM [inhibitor, partial curve, poor fit]	
CC1CC(C)CN(CCCNC(=O)c2ccc(N3CCCC3=O)cc2)C1 (stereo not given)	inconclusive: 3.7 µM [inhibitor, full curve, poor fit]	
COc1cccc(/C=C/C(=O)OCC(=O)Nc2cccc(S(=O)(=O)N3CCOCC3)c2)c1OC		inactive: 15.7%
C/C(Cn1nnc2ccccc21)=N\NC(=O)c1cccc(Br)c1	inconclusive: 0.0026 µM [inhibitor, full curve, poor fit]	
OCc1cn(-c2ccccc2)nc1-c1ccco1		inactive: 77.4%
COc1cc(C2C3=C(CC(C)(C)CC3=O)OC(N)=C2[N+](=O)[O-])ccc1O (stereo not given)	inconclusive: 18.5 µM [inhibitor, single point]	
Cc1ccc(C)c(NC(=O)COC(=O)COc2cccc3c2OC(C)(C)C3)c1		inactive: -1.19%
COc1ccccc1C(=O)NCCSCc1ccccc1Cl	active: 2.94 µM	
CCOc1cc(C2C(C(=O)OC(C)C)=C(C)NC3=C2C(=O)CCC3)cc([N+](=O)[O-])c1O (stereo not given)		inactive: 16.6%
Cn1nccc1NS(=O)(=O)c1ccc(NC(=O)C(F)(F)F)cc1		inactive: -2.22%

SMILES	Potency	activity change, negative = inhibition
Cc1[nH]c2ccc(-c3nnc(SCC(=O)NCc4ccco4)n3Cc3ccccc3)cc2c1C	inconclusive: 13.1 µM [inhibitor, single point]	
Cc1cccc(N2CCN(C(=O)c3c(-c4ccccc4)noc3C)CC2)c1C	active: 10.4 µM	
COc1cc(/C(C#N)=C/c2ccccc2)c([N+](=O)[O-])cc1OC		inactive: 6.91%
CCn1ccnc1CN1CCCC(C(=O)c2ccc3cc(OC)ccc3c2)C1 (stereo not given)	inconclusive: 18.5 µM [inhibitor, partial curve, poor fit]	
O=C(O)c1cc2n(n1)C(C(F)(F)F)CC(c1ccco1)N2 (stereo not given)	inconclusive: 18.5 µM [inhibitor, single point]	
O=C(NCCO)c1cccc(Nc2nc(-c3ccccc3)c3cc(Cl)ccc3n2)c1	inconclusive: 11.7 µM [inhibitor, single point]	
COC(=O)C1=C(c2cccc(OCc3ccccc3)c2)C[C@@H]2CC[C@H]1N2C(=O)NCc1ccccc1OC	inconclusive: 1.04 µM [inhibitor, full curve]	
Cc1cc([N+](=O)[O-])nn1CC(=O)NC(C)c1ccccc1 (stereo not given)	inconclusive: 16.5 µM [inhibitor, single point]	
COc1cccc(OC)c1C(=O)Nc1ccc(NC(=O)c2ccco2)cc1	inconclusive: 6.57 µM [inhibitor, partial curve, poor fit]	
COc1ccc2[nH]c(CN3CCN(CC(C)C)C(CCO)C3)c(C)c2c1 (stereo not given)	inconclusive: 18.5 µM [inhibitor, single point]	
CN(Cc1nccn1C)C(=O)c1cc(COc2cccc(C(F)(F)F)c2)on1	active: 9.28 µM	
Cc1csc(SCC(=O)Nc2cccc(C)c2C)n1		inactive: -10.6%
O=[N+]([O-])c1ccc(C(O)C23CN4CN(CN(C4)C2)C3)cc1 (stereo not given)	inconclusive: 18.5 µM [inhibitor, single point]	
CN(C[C@H](c1ccccc1)N(C[C@H](Cc1ccccc1)N(CCc1ccccc1)N=O)N=O)N=O	active: 11.7 µM	
C[C@]12CCC(=O)C=C1CC[C@H]1[C@@H]3CC[C@](O)(C(=O)CO)[C@@]3(C)C[C@H](O)[C@@]12F	inconclusive: 0.213 µM [inhibitor, partial curve]	
Cc1c(C(=O)O)c(C(=O)O)c2n1CCS2		inactive: -0.338%
Cc1cccc(C2=NNC(=O)C(c3ccc(Cl)cc3)C2)c1 (stereo not given)	inconclusive: 18.5 µM [inhibitor, single point]	
COc1cccc(NC(=O)CN(C)C(=O)c2ccccc2OCC(=O)Nc2cccc(C(F)(F)F)c2)c1		inactive: -12.8%
COC(=O)c1ccc(CSc2nc3c(c(=O)n2-c2ccc(Br)cc2)SCC3)o1	active: 9.28 µM	
CCOP(=O)(C#CC(C)(C)C)C(C)(O)c1ccccc1 (stereo not given)		inactive: 8.62%
CCOc1ccc(CCNC(=O)CCc2c(C)nc3ncnn3c2C)cc1OCC	active: 5.86 µM	
COc1ccc(CNC(=O)C2CCC(=O)N2C(C)C)c(OC)c1 (stereo not given)	inconclusive: 5.86 µM [inhibitor, partial curve, poor fit]	
Cc1ccc(NC(=O)CN2CCCC2)cc1Br	inconclusive: 14.7 µM [inhibitor, single point]	
COc1ccc(OCC(=O)Nc2cc(-c3nn(C)c(=O)c4ccccc34)ccc2N2CCOCC2)cc1	active: 5.86 µM	

SMILES	Potency	activity change, negative = inhibition
Cc1ccc(S(=O)(=O)N2CCOCC2)cc1C(=O)Nc1nc2ccccc2[nH]1		inactive: -92.4%
Cc1csc(=O)n1CC(=O)OCC(=O)Nc1ccccc1C(C)C	inconclusive: 5.22 µM [inhibitor, single point]	
Cc1ccc(/C=N/NC(=O)c2ccc3nc[nH]c3c2)o1		inactive: -6.65%
CCCCn1c(N)c(N(CCC(C)C)C(=O)c2ccccc2-n2cnnn2)c(=O)[nH]c1=O	inconclusive: 10.4 µM [inhibitor, single point]	
Cc1ccc(CSC2=NCCN2C(=O)C(C)Oc2ccccc2)cc1 (stereo not given)	inconclusive: 5.22 µM [inhibitor, single point]	
Cc1cc(C)n(CCc2nc(-c3ccco3)cs2)n1		inactive: -38.5%
COc1ccc(CSc2nnnn2C)cc1[N+](=O)[O-]	inconclusive: 0.0415 µM [inhibitor, full curve, poor fit]	
COc1ccc(OCCOC(=O)c2cccs2)cc1		inactive: 46.9%
Cc1ccc(C)c(NC(=O)CCC(=O)OC(C(=O)c2ccccc2)c2ccccc2)c1 (stereo not given)	inconclusive: 10.4 µM [inhibitor, single point]	
O=C(N/N=C/c1ccco1)c1cc(-c2ccc(Cl)s2)[nH]n1	inconclusive: 0.0026 µM [inhibitor, full curve, poor fit]	
Cc1noc(C)c1S(=O)(=O)N(Cc1ccccc1)C(C)C		inactive: 10.3%
O=C(NC(c1ccccc1)c1ccccc1)c1ccc(=O)[nH]n1		inactive: 32%
O=C(Nc1nc2c(Br)cc(Br)cc2c(=O)s1)C1CCC1		inactive: 25%
Cc1onc(-c2ccccc2Cl)c1C(=O)OCC(=O)N1CCCc2ccccc21	inconclusive: 11.7 µM [inhibitor, single point]	
COC(=O)c1sccc1NS(=O)(=O)c1ccc(OC)cc1	inconclusive: 11.7 µM [inhibitor, partial curve, poor fit]	
N=C(N)SCCc1cnc[nH]1		inactive: -4.39%
CCOc1ncccc1C(=O)OCC(=O)Nc1cc(S(=O)(=O)N2CCOCC2)ccc1Cl	inconclusive: 18.5 µM [inhibitor, single point]	
Cc1ccc(C(O)(c2ccc(C)c(C)c2)C2CN3CCC2CC3)cc1C (stereo not given)	inconclusive: 18.5 µM [inhibitor, single point]	
O=[N+]([O-])c1cc([N+](=O)[O-])c(Oc2ccc(F)cc2F)cc1NN1CCCCC1	inconclusive: 0.928 µM [inhibitor, partial curve, poor fit]	
COc1ccc(NC(=O)COc2ccccc2C)cc1S(=O)(=O)N1CCCCC1	inconclusive: 11.7 µM [inhibitor, single point]	
Cc1ccc(O)c(NC(=S)NC(=O)/C=C/c2ccco2)c1		inactive: 29.7%
CC1(c2ccccc2)CC(C)(C)N(C(=O)C2CCCO2)c2ccccc21 (stereo not given)	active: 2.33 µM	

Whole records, quoted from the list.
Cc1csc(=O)n1CC(=O)OCC(=O)Nc1ccccc1C(C)C is entered as Potency: inconclusive: 5.22 µM [inhibitor, single point]
Cc1ccc(O)c(NC(=S)NC(=O)/C=C/c2ccco2)c1 is entered as activity change, negative = inhibition: inactive: 29.7%
Cc1onc(-c2ccccc2Cl)c1C(=O)OCC(=O)N1CCCc2ccccc21 is entered as Potency: inconclusive: 11.7 µM [inhibitor, single point]
Cc1ccc(S(=O)(=O)N2CCOCC2)cc1C(=O)Nc1nc2ccccc2[nH]1 is entered as activity change, negative = inhibition: inactive: -92.4%
